The other results are listed elsewhere or left out. These are further read-outs of the screen, such as a control signal, another cell line or another target. No call is given for them. Most of these compounds were active or inconclusive in the main read-out, so they are no random draw. Potencies come from curve fits of mixed quality, noted in brackets.
Assay: IkB Signaling
Settings: ABC-DLBCL IkBa-CBG/CBR dual luciferase ratio (green luciferase fused to IkBa over red control in OCI-Ly3 lymphoma cells), 4 h; measured here: control luc red channel unless noted
Summary of the method: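 Luminescence ratio of IκBα-fused green versus native red beetle luciferase in OCI-Ly3 cells, 4 h post-doxycycline with compound; red signal alone, scaled from basal (0%) to zero light (-100%), flagged nonspecific or cytotoxic effects.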

Compound | AC50
CCOC(=O)c1cc(OC(=O)c2ccccc2OC)n(-c2ccccc2)n1 | 25.1 µM [falling, single point]
O=C(c1cccc2ccccc12)N1CCN(CC2CC=CCC2)CC1 (stereo unspecified) | 20 µM [falling, partial curve]
COc1ccc(CCNC(=O)c2ccc3c(c2)N(Cc2cccc(Cl)c2)C(=O)c2ccccc2S3=O)cc1OC (stereo unspecified) | 0.794 µM [rising, full curve, poor fit]
Cc1cc2n(n1)C(c1c[nH]c3ccccc13)Nc1ccccc1-2 (stereo unspecified) | 39.8 µM [falling, single point]
CC(=O)c1ccc(N2C(=O)Nc3ccccc3S2(=O)=O)cc1 | 1 µM [rising, full curve, poor fit]
O=C(Cn1c(SCC(=O)Nc2ccc(F)cc2)nc2ccccc21)NCc1ccc(Cl)cc1 | 20 µM [falling, partial curve]
CCOc1ccc(C(=O)NCCc2sc(-c3ccc(F)cc3)nc2C)cc1 | 0.794 µM [falling, partial curve, poor fit]
CCOC(=O)c1ccc(NC(=O)CN2C(=O)c3cccnc3Sc3ccccc32)cc1 | 39.8 µM [falling, single point]
COc1ccc(Nc2ncc(C(=O)N3CCN(c4ccccc4OC)CC3)c3ccccc23)cc1 | 7.94 µM [falling, full curve]
Oc1c(C(c2cccs2)N2CCC3(CC2)OCCO3)sc2ncnn12 (stereo unspecified) | 3.16 µM [rising, full curve]
Cn1c(SCc2ccccc2Cl)nc(=O)c2c1NC(=O)CC2c1cc(F)ccc1F (stereo unspecified) | 25.1 µM [falling, single point]
CCCC(=O)Nc1ccc(NC(=O)c2ccccn2)cn1 | 10 µM [falling, partial curve]
O=C(Cn1cc(S(=O)(=O)c2ccccc2)c(=O)c2cc3c(cc21)OCO3)Nc1ccccc1 | 15.8 µM [falling, partial curve]
O=C(NCCCc1ccccc1)c1nn(-c2ccccc2)nc1CO | 39.8 µM [falling, single point]
Cc1nc2nc(SCC(=O)NC3CCC(C)CC3)nn2c(C)c1Cc1ccccc1Cl (stereo unspecified) | 31.6 µM [falling, single point]
CCn1cc2nc(SCc3cccc(C)c3)n(CCc3ccccc3)c(=O)c2n1 | 3.98 µM [falling, partial curve]
Cc1nc2c(-c3ccccc3)c(C)nn2c(C)c1CCC(=O)NCc1ccccc1 | 31.6 µM [falling, partial curve, poor fit]
Cc1ccc(S(=O)(=O)n2nc(-c3ccco3)nc2NCc2ccc(N(C)C)cc2)cc1 | 2.51 µM [falling, partial curve]
CCc1ccc2oc(-c3ccc(C)c(NC(=O)c4ccc(C#N)cc4F)c3)nc2c1 | 1.26 µM [falling, full curve]
Cc1cc(NCc2ccc(Cl)cc2)n2cnnc2n1 | 15.8 µM [falling, single point]
Cc1cccc(-c2noc(-c3ccc(NCc4cccnc4)c([N+](=O)[O-])c3)n2)c1 | 31.6 µM [falling, single point]

Compound | AC50
O=C(Nc1ccc(F)cc1)c1ccc2c(c1)NC(=O)c1ccccc1S2 | 0.0501 µM [falling, full curve]
CS(=O)(=O)Nc1ccccc1C(=O)Nc1cccc(Cl)c1 | 12.6 µM [falling, partial curve]
CCOC(=O)CS(=O)(=O)c1nc(-c2ccccc2)cc(C(F)(F)F)n1 | 2.51 µM [falling, full curve]
CCC(=O)Nc1cccc(OCc2cc(=O)n3cc(C)ccc3n2)c1 | 0.501 µM [falling, partial curve, poor fit]
c1ccc(-c2cn3c4c(sc3n2)CCCC4)cc1 | 15.8 µM [falling, partial curve]
CCN(CC)C(=O)COc1ccc(-c2ccccc2)cc1 | 12.6 µM [falling, partial curve]
COc1ccc(OC)c(NC(=O)c2c(NCc3ccc(N(C)C)cc3)sc3c2CCCC3)c1 | 1.26 µM [rising, full curve]
COc1ccc(NC(=O)c2oc3ccccc3c2NC(=O)C23CC4CC(CC(C4)C2)C3)cc1 | 20 µM [falling, partial curve]
O=C(Nc1nc2c(Cl)cccc2s1)c1ccc(Br)o1 | 2 µM [falling, full curve]
O=C(NCc1ccccc1Cl)c1ccc(NC(=O)N2CCSc3ccccc32)cc1 | 31.6 µM [falling, single point]
COc1ccc(S(=O)(=O)N(CC(=O)Nc2ccc3c(c2)OCO3)c2ccc(C)cc2)cc1 | 12.6 µM [falling, partial curve, poor fit]
COc1cc(OC)cc(C(=O)Nc2ccc3c(c2)n(C)c(=O)c(=O)n3C)c1 | 25.1 µM [falling, single point]
Cc1ccc(Cl)cc1NC(=O)Cn1c(=O)n(Cc2ccccc2)c(=O)c2oc3ccccc3c21 | 15.8 µM [falling, single point]
CCn1cc2c(n1)-c1c(oc(C(=O)Nc3cccc(C)c3C)c1C)CC2 | 10 µM [falling, single point]
Cc1cc(C)cc(NC(=O)CSc2oc(-c3ccccc3)nc2S(=O)(=O)c2ccccc2)c1 | 3.98 µM [falling, full curve]
CCOc1ccc(-c2cc(C(=O)NCc3ccccc3Cl)c3ccccc3n2)cc1 | 12.6 µM [rising, partial curve]
Cc1cc(C)cc(NS(=O)(=O)c2ccc3[nH]cc(C(=O)NC4CCCCC4)c(=O)c3c2)c1 | 15.8 µM [falling, partial curve]
Cc1ccc(N2CCN(C(=O)c3ccccc3F)CC2)c(C)c1 | 12.6 µM [falling, partial curve]
Cc1ccc(NC(=O)CCCn2c(=O)c3cccn3c3ccccc32)cc1C | 12.6 µM [falling, partial curve, poor fit]
CC(C)CC(=O)n1nc(-c2cccnc2)nc1NCc1ccc(F)cc1 | 20 µM [falling, single point]

Rewritten as a markdown table: eight of the compounds above

| Compound | AC50 |
| --- | --- |
| Cc1nc2nc(SCC(=O)NC3CCC(C)CC3)nn2c(C)c1Cc1ccccc1Cl (stereo unspecified) | 31.6 µM [falling, single point] |
| CCn1cc2nc(SCc3cccc(C)c3)n(CCc3ccccc3)c(=O)c2n1 | 3.98 µM [falling, partial curve] |
| Cc1nc2c(-c3ccccc3)c(C)nn2c(C)c1CCC(=O)NCc1ccccc1 | 31.6 µM [falling, partial curve, poor fit] |
| Cc1ccc(S(=O)(=O)n2nc(-c3ccco3)nc2NCc2ccc(N(C)C)cc2)cc1 | 2.51 µM [falling, partial curve] |
| CCc1ccc2oc(-c3ccc(C)c(NC(=O)c4ccc(C#N)cc4F)c3)nc2c1 | 1.26 µM [falling, full curve] |
| Cc1cc(NCc2ccc(Cl)cc2)n2cnnc2n1 | 15.8 µM [falling, single point] |
| Cc1cccc(-c2noc(-c3ccc(NCc4cccnc4)c([N+](=O)[O-])c3)n2)c1 | 31.6 µM [falling, single point] |
| O=C(Nc1ccc(F)cc1)c1ccc2c(c1)NC(=O)c1ccccc1S2 | 0.0501 µM [falling, full curve] |

From PubChem BioAssay AID445 (National Center for Advancing Translational Sciences (NCATS), 2006)
